Test results taken from patent US20240285566A1, “SUBCUTANEOUS FORMULATION AND METHODS FOR TREATING EDEMA REFRACTORY TO ORAL DIURETICS” (RESQ Pharmaceuticals LLC, priority 2021, published 2024).
For at least one compound, name, drawing or mass did not settle the structure.

Assay: Stability of arginine and potassium bumetanide salts over four weeks
Type: physicochemical
Procedure: The stability of the arginine and potassium bumetanide salts was monitored over a four week period with storage at either 2-8° C. or 25° C. for that time period. The bumetanide salt solutions were evaluated on the basis of pH, concentration of bumetanide in solution, the percent assay recovery and the presence of an impurity (see Tables 17 and 18).

SMILES | Recovery (1 week at 5° C.) [%] | Recovery (1 week at 25° C.) [%] | Recovery (2 weeks at 5° C.) [%] | Recovery (2 weeks at 25° C.) [%] | Recovery (4 weeks at 5° C.) [%] | Recovery (4 weeks at 25° C.) [%] | Recovery (T0) [%]
CCCCNc1cc(C(=O)O)cc(S(N)(=O)=O)c1Oc1ccccc1.N=C(N)NCCCC(N)C(=O)O [arginine bumetanide salt] | 100.0 | 99.6 | 98.3 | 97.8 | 97.8 | 97.8 | 100
CCCCNc1cc(C(=O)[O-])cc(S(N)(=O)=O)c1Oc1ccccc1.[K+] [potassium bumetanide salt] | – | – | – | – | – | – | 100.0
